This is one part of the list. Cut-off read from the data, not from the text of the source: active = 2-fold of DMSO or more and inactive = the rest. Single values of this set are uncertain. Some low values are a fixed figure set by the source, not a measured ratio.

This test concerns CM7/1-hgem mouse ES cell-derived cardiomyocytes. Put plainly: maximal number of mAG-hGem(1/110)-positive cardiomyocytes over 96 h, fold-change vs DMSO; higher = more cardiomyocyte cell cycle activity. The following applies: 1 µM; 96 (max over 12 h time points) h.
Take `CC(=O)NC[C@H]1CN(c2ccc(N3CCOCC3)c(F)c2)C(=O)O1`: the maximal number was inactive: 1.
As for `CC[C@H](/C=C/[C@@H](C)[C@H]1CC[C@H]2[C@@H]3CCC4=CC(=O)CC[C@]4(C)[C@H]3CC[C@]12C)C(C)C`, the maximal number is inactive: 1.
Under `COc1c(CC(=O)c2cc3c(cc2O)OC(C)(C)C(O)C3)ccc2c1C=CC(C)(C)O2` (stereo not drawn) stands inactive: 1.
Under `COC(=O)[C@H]1[C@H]2C[C@H]3c4[nH]c5ccccc5c4CCN3C[C@@H]2CC[C@@H]1O` stands inactive: 1; under `COC(=O)c1c(C)c2c(c(C)c1O)OC(=O)c1c(C)c(Cl)c(O)c(Cl)c1O2`, inactive: 1.
Consider `O=C(O[C@@H]1Cc2c(O)cc(O)cc2O[C@@H]1c1ccc(O)c(O)c1)c1cc(O)c(O)c(O)c1`, for which the maximal number was inactive: 1.
Under `CC(C)c1c(O)ccc2c1CC[C@H]1C(C)(C)CCC[C@]21C` stands inactive: 1.
For `NC1(C(=O)O)CCCC1` the value was inactive: 0; for `COC(=O)CC[C@@H](C)[C@H]1CC[C@H]2[C@@H]3[C@H](O)C[C@@H]4C[C@H](O)CC[C@]4(C)[C@H]3C[C@H](O)[C@]12C`, inactive: 1; for `O=C(O)CCNC(=O)c1ccc(/N=N/c2ccc(O)c(C(=O)O)c2)cc1`, inactive: 0.
For `CC(C)C(=O)Nc1ccc([N+](=O)[O-])c(C(F)(F)F)c1` the value was inactive: 1; for `CO[C@@]1(NC(=O)C2SC(=C(C(N)=O)C(=O)O)S2)C(=O)N2C(C(=O)O)=C(CSc3nnnn3C)CS[C@@H]21` (stereo partly drawn), inactive: 1; for `CC(C)C1=CC2=CC[C@@H]3[C@](C)(CCC[C@@]3(C)C(=O)O)[C@H]2CC1`, inactive: 1.
As to `O=C1C=C2CC3(O)COc4c(ccc(O)c4O)C3=C2C=C1O` (stereo not drawn), the maximal number is inactive: 1.
For the compound `O=c1cc(-c2ccccc2)oc2ccc(O)cc12`, the maximal number is inactive: 1.
Under `CC(=O)OC1CCC23CC1(C)CCC2C(C)(C)CC3OC(C)=O` (stereo not drawn) stands inactive: 1.
For `O=C1C=C(O)C(=O)c2ccccc21` the value was inactive: 1.
In the case of `O=C(/C=C/c1ccc(O)c(O)c1)OCCc1ccccc1`, the maximal number is inactive: 1.
For `CC(=O)OCC(=O)NCCCOc1cccc(CN2CCCCC2)c1` the value was inactive: 1.
Under `COc1ccc(-c2ccc3cc(C(=O)O)ccc3c2)cc1C12CC3CC(CC(C3)C1)C2` stands inactive: 0; under `O=C(O)c1cc(O)c(=O)c2c(O)c(O)ccc2c1`, inactive: 1; under `O=C(O)c1cc(=O)c(O)c2c(O)c(O)c(O)cc2c1`, inactive: 1.
Under `COC(=O)C[C@H]1C2(C)CC34OC5(C)O[C@@]6([C@H](OC)C(OC(=O)C(C)C)[C@]7(C)C(/C(=C(/OC)C(C)C)C(=O)O[C@H]7c7ccoc7)[C@@]6(O5)[C@H](OC)[C@@]3(OC)C2OC(C)=O)[C@]14C` (stereo partly drawn) stands inactive: 1; under `COc1ccc2c(c1OC)OC[C@@H](c1ccc(OC)c(OC)c1OC)C2`, inactive: 1.
With `COc1cc([C@@H]2c3cc4c(cc3[C@@H](O[C@@H]3O[C@@H]5CO[C@@H](C)O[C@H]5[C@H](O)[C@H]3O)[C@H]3COC(=O)[C@H]23)OCO4)cc(OC)c1O`, the maximal number was inactive: 0.5.
Under `Cc1cc(O)c(C=O)c2c1C(=O)Oc1c(COC(=O)/C=C/C(=O)O)c(O)c(C(=O)O)c(C)c1O2` stands inactive: 1; under `CC(=O)O[C@H]1C[C@@H](OC(C)=O)C(C)(C)[C@@H]2C[C@@H](OC(C)=O)[C@@]3(C)C4=CC(=O)O[C@@H](c5ccoc5)[C@]4(C)CC[C@@H]3[C@@]12C`, inactive: 0.5; under `CC1(C)CC2C1CCC1(C)OC2(C)CCC1O` (stereo not drawn), inactive: 1.
Take `CC(C)CCCC(C)C1CCC2C3CCC4CCCCC4(C)C3CCC12C` (stereo not drawn): the maximal number is inactive: 1.
Under `O=S(=O)(c1cccc2cnccc12)N1CCCNCC1` stands inactive: 0.
For `CO[C@H]1[C@H](O)[C@@H](O)[C@H](O)[C@H](O)[C@H]1O` the value was inactive: 1; for `Nc1nc(N)nc(-c2cc(Cl)ccc2Cl)n1`, inactive: 1.
For `Oc1cc(O)c2c(c1)O[C@H](c1ccc(O)c(O)c1)[C@@H](O)C2` the value was inactive: 1.
For `Cc1cn([C@H]2C[C@H](N=[N+]=[N-])[C@@H](CO)O2)c(=O)[nH]c1=O`, the maximal number is inactive: 1.
For `Cn1c(=O)c2c(ncn2CC2OCCO2)n(C)c1=O` the value was inactive: 1.
For `OCC(O)C(O)C(O)CO` (stereo not drawn) the value was inactive: 1; for `C[C@@H](O)[C@H]1C(=O)N2C(C(=O)O)=C(S[C@@H]3CN[C@H](C(=O)N(C)C)C3)[C@H](C)[C@H]12`, inactive: 1.
On to `C[C@H]1[C@H]2CC[C@H]3[C@@H]4CC=C5C[C@@H](N(C)C)CC[C@]5(C)[C@H]4CC[C@]23CN1C`, for which the maximal number is inactive: 1.

Source of the values: the supplement of paper PMC9549374.
